# Literature values as cited in patent US11491161B2, “Methods and compositions for treatment of pulmonary hypertension and other lung disorders” (Respira Therapeutics, Inc., priority 2016, dated 2022).
# Some results were stated once for a whole list of compounds, not compound by compound.
# Test system: plasma proteins
# Settings: cited from earlier work
compound,measurement,value
CCCNS(=O)(=O)Nc1ncnc(OCCOc2ncc(Br)cn2)c1-c1ccc(Br)cc1 [macitentan],protein binding in the systemic circuit,> 99%
"CC(C)N(CCCCOCC(=O)NS(C)(=O)=O)c1cnc(-c2ccccc2)c(-c2ccccc2)n1 [selexipag, 2-{4-[(5,6-diphenylpyrazin-2-yl)(isopropyl)amino]butoxy}-N-(methylsulfonyl) acetamido]",protein binding in the systemic circuit,> 99%
